Reference: article PMC9443943
No constants are given. Whether binding was seen depends on the method and setting. Binding seen in cells or lysates may run through a third protein. Some entries that bind do so weakly or less than the wild type. For some of these results: Tags and fused reporters may be left off the sequences shown.

Amino acid sequences for entries named in this document (tags omitted).
UniProt O14894: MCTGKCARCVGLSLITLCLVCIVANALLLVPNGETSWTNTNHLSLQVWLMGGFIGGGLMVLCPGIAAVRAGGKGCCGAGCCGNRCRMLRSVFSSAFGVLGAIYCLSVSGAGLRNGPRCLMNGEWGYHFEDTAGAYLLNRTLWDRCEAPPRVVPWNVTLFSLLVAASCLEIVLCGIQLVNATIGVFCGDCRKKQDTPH
UniProt P11166: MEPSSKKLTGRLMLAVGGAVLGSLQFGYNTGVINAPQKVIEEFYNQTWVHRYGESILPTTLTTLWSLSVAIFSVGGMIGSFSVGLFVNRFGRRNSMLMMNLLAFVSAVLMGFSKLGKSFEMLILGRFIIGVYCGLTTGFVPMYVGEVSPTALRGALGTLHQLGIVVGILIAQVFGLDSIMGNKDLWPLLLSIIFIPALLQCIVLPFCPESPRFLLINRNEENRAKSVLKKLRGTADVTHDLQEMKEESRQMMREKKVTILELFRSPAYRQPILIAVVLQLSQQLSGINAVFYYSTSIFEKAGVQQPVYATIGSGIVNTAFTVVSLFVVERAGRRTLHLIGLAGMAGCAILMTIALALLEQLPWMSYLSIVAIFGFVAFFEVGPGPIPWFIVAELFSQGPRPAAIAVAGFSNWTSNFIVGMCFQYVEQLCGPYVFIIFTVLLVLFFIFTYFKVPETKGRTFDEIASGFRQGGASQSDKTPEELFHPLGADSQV

Key:
[1] = target: TM4SF5 in SNU449 hepatocytes (human) (UniProt O14894); test: co-IP; SNU449 hepatocytes after FBS repletion; who was precipitated is not told
[2] = target: TM4SF5 in SNU449 hepatocytes (human) (UniProt O14894); test: co-IP; SNU449 hepatocytes after glucose repletion; who was precipitated is not told
[3] = target: TM4SF5 in SNU449 hepatocytes (human) (UniProt O14894); test: co-IP; SNU449 hepatocytes; immunoblot of precipitates; amino acid or arginine repletion; who was precipitated is not told
CD151, Strep-tagged = target: T1, CD151, Strep-tagged (UniProt P48509); test: co-IP; HEK293FT transfected 48 h; lysis in 40 mM HEPES pH 7.4, 150 mM NaCl, 1 mM EDTA, 0.5% Triton X-100; Strep-conjugated agarose beads, 4 h at 4°C; washes with 500 mM NaCl; immunoblot (Strep-tagged molecule held, HA-GLUT detected)
T1 sequence: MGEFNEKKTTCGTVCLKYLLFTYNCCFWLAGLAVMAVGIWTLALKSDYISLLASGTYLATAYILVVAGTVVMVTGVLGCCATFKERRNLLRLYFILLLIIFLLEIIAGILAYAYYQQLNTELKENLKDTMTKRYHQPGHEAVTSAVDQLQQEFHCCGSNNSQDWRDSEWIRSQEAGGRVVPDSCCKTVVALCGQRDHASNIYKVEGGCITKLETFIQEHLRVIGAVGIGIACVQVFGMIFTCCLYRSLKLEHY

[4] = target: TM4SF5-STrEP (transmembrane 4 L six family member 5, Strep-tagged) (human) (UniProt O14894); test: as above
TM4SF18, Strep-tagged = target: T2, TM4SF18, Strep-tagged (UniProt Q96CE8); test: as above
T2 sequence: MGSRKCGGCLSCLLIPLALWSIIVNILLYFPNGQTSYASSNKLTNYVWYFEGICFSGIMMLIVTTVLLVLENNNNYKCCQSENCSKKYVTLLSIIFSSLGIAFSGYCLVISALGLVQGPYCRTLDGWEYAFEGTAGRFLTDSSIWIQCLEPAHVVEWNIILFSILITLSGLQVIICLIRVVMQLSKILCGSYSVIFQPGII

| Molecule | binding [1] | binding [2] | binding [3] | binding (CD151, Strep-tagged) | binding [4] | binding (TM4SF18, Strep-tagged) |
| --- | --- | --- | --- | --- | --- | --- |
| GLUT1 in SNU449 hepatocytes (from UniProt P11166 1-492) | no binding (condition: after FBS repletion) | no binding (condition: after glucose repletion) | binds | – | – | – |
| HA-GLUT4 (protein, UniProt P14672 1-509) MPSGFQQIGSEDGEPPQQRVTGTLVLAVFSAVLGSLQFGYNIGVINAPQKVIEQSYNETWLGRQGPEGPSSIPPGTLTTLWALSVAIFSVGGMISSFLIGIISQWLGRKRAMLVNNVLAVLGGSLMGLANAAASYEMLILGRFLIGAYSGLTSGLVPMYVGEIAPTHLRGALGTLNQLAIVIGILIAQVLGLESLLGTASLWPLLLGLTVLPALLQLVLLPFCPESPRYLYIIQNLEGPARKSLKRLTGWADVSGVLAELKDEKRKLERERPLSLLQLLGSRTHRQPLIIAVVLQLSQQLSGINAVFYYSTSIFETAGVGQPAYATIGAGVVNTVFTLVSVLLVERAGRRTLHLLGLAGMCGCAILMTVALLLLERVPAMSYVSIVAIFGFVAFFEIGPGPIPWFIVAELFSQGPRPAAMAVAGFSNWTSNFIIGMGFQYVAEAMGPYVFLLFAVLLLGFFIFTFLRVPETRGRTFDQISAAFHRTPSLLEQEVKPSTELEYLGPDEND | – | – | – | no binding | binds | no binding |
| HA-GLUT9 (protein, UniProt Q9NRM0 1-540) MARKQNRNSKELGLVPLTDDTSHAGPPGPGRALLECDHLRSGVPGGRRRKDWSCSLLVASLAGAFGSSFLYGYNLSVVNAPTPYIKAFYNESWERRHGRPIDPDTLTLLWSVTVSIFAIGGLVGTLIVKMIGKVLGRKHTLLANNGFAISAALLMACSLQAGAFEMLIVGRFIMGIDGGVALSVLPMYLSEISPKEIRGSLGQVTAIFICIGVFTGQLLGLPELLGKESTWPYLFGVIVVPAVVQLLSLPFLPDSPRYLLLEKHNEARAVKAFQTFLGKADVSQEVEEVLAESRVQRSIRLVSVLELLRAPYVRWQVVTVIVTMACYQLCGLNAIWFYTNSIFGKAGIPPAKIPYVTLSTGGIETLAAVFSGLVIEHLGRRPLLIGGFGLMGLFFGTLTITLTLQDHAPWVPYLSIVGILAIIASFCSGPGGIPFILTGEFFQQSQRPAAFIIAGTVNWLSNFAVGLLFPFIQKSLDTYCFLVFATICITGAIYLYFVLPETKNRTYAEISQAFSKRNKAYPPEEKIDSAVTDGKINGRP | – | – | – | – | binds | – |
